Experimental findings from paper PMC6927751 are described below.

Chains of the proteins cited; added tags and fusions are not shown.
UniProt P33176: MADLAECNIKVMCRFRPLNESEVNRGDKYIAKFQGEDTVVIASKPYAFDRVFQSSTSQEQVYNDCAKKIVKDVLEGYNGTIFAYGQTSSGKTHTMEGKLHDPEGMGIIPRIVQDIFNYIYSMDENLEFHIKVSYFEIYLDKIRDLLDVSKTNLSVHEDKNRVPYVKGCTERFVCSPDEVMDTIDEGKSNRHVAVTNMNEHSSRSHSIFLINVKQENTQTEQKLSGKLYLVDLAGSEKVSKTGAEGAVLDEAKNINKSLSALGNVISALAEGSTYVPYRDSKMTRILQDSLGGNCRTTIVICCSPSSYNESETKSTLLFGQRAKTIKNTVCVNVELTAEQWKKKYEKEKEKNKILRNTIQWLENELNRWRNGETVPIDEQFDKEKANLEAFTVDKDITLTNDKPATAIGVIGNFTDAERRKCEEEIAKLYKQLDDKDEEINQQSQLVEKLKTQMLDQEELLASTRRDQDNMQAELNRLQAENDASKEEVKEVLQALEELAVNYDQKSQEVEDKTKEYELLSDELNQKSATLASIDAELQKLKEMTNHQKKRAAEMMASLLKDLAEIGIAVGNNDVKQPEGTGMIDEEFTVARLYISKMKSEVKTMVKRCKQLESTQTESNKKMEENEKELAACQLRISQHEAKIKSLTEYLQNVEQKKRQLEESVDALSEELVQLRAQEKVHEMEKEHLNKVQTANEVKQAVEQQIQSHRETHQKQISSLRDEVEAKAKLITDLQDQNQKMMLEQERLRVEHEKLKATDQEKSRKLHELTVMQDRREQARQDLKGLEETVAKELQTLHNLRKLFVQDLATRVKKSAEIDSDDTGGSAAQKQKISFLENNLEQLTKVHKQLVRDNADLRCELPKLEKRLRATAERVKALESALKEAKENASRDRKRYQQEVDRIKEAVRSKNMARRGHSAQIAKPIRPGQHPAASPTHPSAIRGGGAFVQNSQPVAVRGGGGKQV

The target of test [1] is T1, mCitrine-protrudin (H. sapiens) (UniProt Q5T4F4).
T1 sequence: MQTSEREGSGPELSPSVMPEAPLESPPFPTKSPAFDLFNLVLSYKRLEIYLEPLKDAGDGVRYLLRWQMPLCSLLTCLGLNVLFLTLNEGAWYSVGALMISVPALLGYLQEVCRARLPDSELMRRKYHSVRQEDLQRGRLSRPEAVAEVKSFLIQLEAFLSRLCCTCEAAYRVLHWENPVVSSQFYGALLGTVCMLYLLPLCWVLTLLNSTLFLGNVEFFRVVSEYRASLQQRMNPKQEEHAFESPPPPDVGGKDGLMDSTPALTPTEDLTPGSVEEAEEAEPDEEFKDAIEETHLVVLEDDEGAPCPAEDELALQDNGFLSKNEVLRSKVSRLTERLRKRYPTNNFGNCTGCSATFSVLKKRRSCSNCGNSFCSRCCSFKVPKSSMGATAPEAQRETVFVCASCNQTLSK
Nature of the test: co-IP; GFP-Trap immunoprecipitation of mCitrine-protrudin from lysates of transfected HeLa cells (supernatant after an extra 100000 xg centrifugation), immunoblot of input and IP; in Figure 3F cells treated with TOFA (1 hr at 20 µg/mL) or not. (A western blot detects proteins with antibodies after separation by electrophoresis.)

Test [2] addresses T1, mCitrine-protrudin (H. sapiens). Described as above. This is another data set of the same source.
For test [3], the target named is T2, protrudin-SYFP2 (human) (UniProt Q5T4F4).
T2 sequence: T1 sequence
Nature of the test: FRET or BRET; FRET in transiently transfected HEK293 cells, mTurquoise2 donor and SYFP2 acceptor, increase of donor intensity after photobleaching; in Figure 3E cells in complete medium (25 mM glucose) or medium without glucose (4 hr). For orientation: Bioluminescence resonance energy transfer reports proximity on the nanometre scale.

Read-outs that look alike come from different tables or passages of the source. No constants are given. Whether binding was seen depends on the method and setting. Binding seen in cells or lysates may run through a third protein. Some entries that bind do so weakly or less than the wild type. For some of these results: Tags and fused reporters may be left off the sequences shown.

For “kinesin-1 (KIF5B) (from UniProt P33176 1-963)”, the binding result in test [1] is given as “binds”.

B1: mouse CPT1C stably expressed in HeLa cells (CPT1C cells) (protein, UniProt Q8BGD5 1-798)
chain: MAEAHQASSLLSSLSSDGAEVELSSPVWQEIYLCALRSWKRHLWRVWNDFLAGVVPATPLSWLFLFSTIQLACLLQLDPSLGLMEKIKELLPDWGGQHHQLQGFLSAAVFASCLWGALIFTLHVALRLLLSHHGWLLEPHGAMSSPTKTWLALVRIFSGRHPRLFSFQRALPRQPVPSAQETVRKYLESVRPVLGDDAFDRATALANDFLRLHAPRLQLYLQLKSWCTSNYVSDWWEEFVYLRSRGSLINSTYYMMDFLYVTPTPLQAARAGNAVHTLLLYRHLLNRQEISPTLLMGMRPLCSAQYERMFNTTRIPGVEKDHLRHLQDSRHVAVFHRGRFFRVGTHSPNGLLSPRALEQQFQDILDDPSPACPLEEHLAALTAAPRSMWAQVRESVKTHAATALEAVEGAAFFVSLDSEPAGLTREDPAASLDAYAHALLAGRGHDRWFDKSFTLIVFSNGKLGLSVEHSWADCPVSGHLWEFTLATECFQLGYATDGHCKGHPDPTLPQPQRLQWDLPEQIQPSISLALRGAKTLSGNIDCHVFPFSHFGKSFIKCCHVSSDSFIQLVLQLAHFRDRGQFCLTYESAMTRLFLEGRTETVRSCTREACQFVRAMDNKETDQHCLALFRVAVDKHQALLKAAMSGQGIDRHLFALYIMSRLLHMQSPFLTQVQSQQWLLSTSQVPVQQTHLIDVHNYPDYVSSGGGFGPAHDHGYGISYIFMGENAITFHISSKKSSTETDSHRLGQHIENALLDVASLFRVGQHFKRQFRGENSDYRYNFLSCKTVDPNTPTSSTNL
With B1, in test [2], the binding entry is listed as “binds”.

B2: Myc-CPT1C (protein, UniProt F1LN46 1-801)
chain: MAEAHQASSLLSSLSSDGAEVELSSSVWQEIYLSALRSWKRNLWRVWNDFLAGVVPATPLSWLFLFSTIQLACLLQLDPSLGLMEKIKELLPDWGGQHHQLQGLLAAAVFASCLWGTLIFTLHVALRLLLSHHGWLLEPHGTMSSPTKTWLALVRIFSGRHPRLFSFQRALPRQPVPGAQETVRKYLESMRPVLRDDAFDSVVALANDFLRLQAPRLQLYLQLKSWCASNYVSDWWEEFVYLRSRGSLVNSTYYMMDFLYVTPTPLQAARAGNAVHTLLLYRHLLNRQEIPPTLLMGMRPLCSAQYERMFNTTRIPGVEKDYLCHLQDSQHVAVFHQGRFFRVGTHSSNGLLSPRALEQQFQYILDDPSPACPLEEHLAALTAAPRSMWAQVRESVKTHAATALETVEGAAFFVSLDSEPAGLTRENPAASLDTYAHTLLTGQGHDRWFDKSFTLIVFSNGKLGLSVEHSWADCPVAGHLWEFTLATECFQLGYATDGHCKGHPDPALPKPQRLQWDLPKQIQPSISLALRGAKTLSGNIDCHVFPFFHFGKSFIKGCHVSSDSFIQLVLQLAHFRDRGQFCLTYESAMTRLFLEGRTETVRSCTREACQFVRAMENKERTDQQCLALFREAVDKHQALLKAAMSGQGIDRHLFALYIMSRLLHMQSPFLTQVQSQQWLLSTSQIPVQQTHLFDVHNYPDYVSSGGGFGPAHDHGYGVSYIFMGENAISFHISSKQSSTETDSHRLGQHIEDALLDVASLFQAGQQFKRQFTGLGESSGWKYSNLSCKTVDPNIPKSSTNL
With B2, the binding entry in test [2] is given as “binds”.

B3: CPT1C-mTurquoise2 (protein, UniProt Q8TCG5 1-803)
chain: MAEAHQAVGFRPSLTSDGAEVELSAPVLQEIYLSGLRSWKRHLSRFWNDFLTGVFPASPLSWLFLFSAIQLAWFLQLDPSLGLMEKIKELLPDWGGQHHGLRGVLAAALFASCLWGALIFTLHVALRLLLSYHGWLLEPHGAMSSPTKTWLALVRIFSGRHPMLFSYQRSLPRQPVPSVQDTVRKYLESVRPILSDEDFDWTAVLAQEFLRLQASLLQWYLRLKSWWASNYVSDWWEEFVYLRSRNPLMVNSNYYMMDFLYVTPTPLQAARAGNAVHALLLYRHRLNRQEIPPTLLMGMRPLCSAQYEKIFNTTRIPGVQKDYIRHLHDSQHVAVFHRGRFFRMGTHSRNSLLSPRALEQQFQRILDDPSPACPHEEHLAALTAAPRGTWAQVRTSLKTQAAEALEAVEGAAFFVSLDAEPAGLTREDPAASLDAYAHALLAGRGHDRWFDKSFTLIVFSNGKLGLSVEHSWADCPISGHMWEFTLATECFQLGYSTDGHCKGHPDPTLPQPQRLQWDLPDQIHSSISLALRGAKILSENVDCHVVPFSLFGKSFIRRCHLSSDSFIQIALQLAHFRDRGQFCLTYESAMTRLFLEGRTETVRSCTREACNFVRAMEDKEKTDPQCLALFRVAVDKHQALLKAAMSGQGVDRHLFALYIVSRFLHLQSPFLTQVHSEQWQLSTSQIPVQQMHLFDVHNYPDYVSSGGGFGPADDHGYGVSYIFMGDGMITFHISSKKSSTKTDSHRLGQHIEDALLDVASLFQAGQHFKRRFRGSGKENSRHRCGFLSRQTGASKASMTSTDF
For the molecule B3, the binding result in test [3] is recorded as “binds”.
